Values quoted from earlier work in patent US6689813B2 (Biostatin Gyogyszerkutato-Fejleszto kft., priority 1998, dated 2004).
At least one compound was matched to its structure with a doubt left.

Test system: neurogenic inflammation
Conditions: sodium salicylate 250 mg/kg i.v.; amidopyridine 200 mg/kg p.o.; phenylbutazone 100 mg/kg i.v.; flufenamic acid 20 mg/kg i.v.; indomethacin 10 mg/kg p.o.; cited from earlier work

Q: Which “significant inhibitory effect on neurogenic inflammation” value does the source give for `CCCCC1C(=O)N(c2ccccc2)N(c2ccccc2)C1=O` [phenylbutazone] here?
A: none
